The experiment is described as follows: qHTS Assay for Lipid Storage Modulators in Drosophila S3 Cells.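 For cell number change: cells counted by Cell Tracker Red CMTPX staining in the red channel.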 As to conditions: BODIPY lipid droplet fluorescence, 18-24 h; for cell number change: measured here: cell count max response, cells fed with added oleic acid. In outline:
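Drosophila S3 cells got compounds at several concentrations plus oleic acid (400 uM solution). Laser-scanning cytometry with 488 nm excitation read lipid droplets at 500-530 nm and cells at 575-640 nm. Percent activity was relative to 20 uM Triacsin C.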
(In general: qHTS replaces the single test concentration by a dilution series.)

[1] abbreviates: measured here: lipid fluorescence (Fed channel) AC50, cells fed with added oleic acid.
Setting [2] is: measured here: cell number channel AC50, cells fed with added oleic acid.

Each structure is given as a SMILES string. The list shows a part of the results. The main result of the screen is listed elsewhere. These columns were measured beside it and carry no call. The list favours compounds with an active or inconclusive main result. Potencies come from curve fits of mixed quality, noted in brackets.

Usually AC50 stands for the concentration giving half of the maximal activity seen. As for `O=C(CC1S/C(=N/N=C/c2c[nH]c3ccc(OCc4ccccc4)cc23)NC1=O)Nc1ccccc1` (centres undefined), the cell number change is -23.7%. For the same compound, the AC50 under setting [1] was 18.4 µM [falling, single point].
For the compound `Cc1cc(NS(=O)(=O)c2c(C(=O)N3CCOCC3)c(C)n(C)c2C)ccc1Br`, the cell number change came out at 5.2%. In addition, the AC50 under setting [1] is 29.1 µM [rising, single point].
For `Cc1ccc(CC2CC(=O)N(Cc3ccco3)C2=O)cc1` (centres undefined), the cell number change was found to be 7.02%. Also, under setting [1], the concentration at half-maximal activity (AC50) was 0.411 µM [rising, full curve, poor fit].
Turning to `COc1cc(NC(=O)C2CCCC2)c(OC)cc1Cl`, the cell number change worked out at 46.9%. Under setting [2], the AC50 was 0.651 µM [rising, full curve]. In addition, the AC50 under setting [1] was 8.2 µM [rising, partial curve].
In the case of `Cc1ccc(CNC(=O)[C@@H]2CCC(=O)N2Cc2ccco2)cc1`, the cell number change was -39%. Also, the AC50 under setting [2] was 18.4 µM [falling, single point]. Moreover, the AC50 under setting [1] was 13 µM [falling, partial curve].
`Cc1ccc(NC(=O)Nc2cccnc2)cc1NC(=O)Nc1cccnc1`: the cell number change was -25%. For the same compound, the concentration at half-maximal activity (AC50) under setting [1] was 13 µM [falling, single point].
`CC(C)C(OC(=O)c1nsc(Cl)c1Cl)C(=O)NC(C)(C)C` (centres undefined): the cell number change is 5.81%.
As to `Cc1ccc(O)c(-c2cc(C(=O)Nc3ccc(S(=O)(=O)Nc4nc(C)cc(C)n4)cc3)[nH]n2)c1`, the cell number change was -22.8%. For the same compound, under setting [2], the half-maximal activity concentration (AC50) is 2.91 µM [rising, partial curve]. Further, under setting [1], the half-maximal activity concentration (AC50) was 32.6 µM [rising, single point].
Consider `Clc1ccc(CNc2cnccn2)cc1`, for which, under setting [1], the AC50 was 0.116 µM [rising, full curve, poor fit].
Turning to `Cc1cc([N+](=O)[O-])cc(C)c1OCC(=O)N/N=C/c1ccc(OC(=O)c2ccccc2)cc1`, the cell number change is -18.7%. The AC50 under setting [2] was 0.731 µM [rising, partial curve, poor fit]. For the same compound, the half-maximal activity concentration (AC50) under setting [1] is 2.91 µM [rising, partial curve].
Regarding `O=C(CN1CCc2ccccc2C1)NC1CCCC1`, the AC50 reads like this: under setting [2], 0.651 µM [rising, partial curve, poor fit]; under setting [1], 0.00461 µM [rising, full curve, poor fit].
On to `COc1ccc(CC(=O)OCC(=O)N(C)C2CCS(=O)(=O)C2)cc1OC` (centres undefined), for which the cell number change is -20.2%. In addition, the AC50 under setting [2] is 2.59 µM [falling, single point].
On to `Cc1ccc(NC(=O)c2nnn(-c3cc(C)cc(C)c3)c2N)cc1`, for which the cell number change was -37.9%. Further, the AC50 under setting [2] was 0.058 µM [falling, full curve, poor fit]. Moreover, the AC50 under setting [1] was 25.9 µM [falling, single point].
Take `COC(C(=O)NNC(=O)CCc1ccccc1)c1ccccc1` (centres undefined): the cell number change was -6.07%. The AC50 under setting [1] was 2.06 µM [falling, single point].
As to `O=C(NCCNC(=O)c1ccccn1)c1ccc(Cl)cc1`, the cell number change came to 17.1%. Besides, under setting [1], the AC50 was 1.16 µM [rising, single point].
On to `COC(=O)c1nc2n(n1)C(c1cccc(Cl)c1)C1=C(CC(C)(C)CC1=O)N2` (centres undefined), for which the cell number change is -23%. Besides, under setting [2], the AC50 was 1.84 µM [falling, full curve, poor fit]. The AC50 under setting [1] was 1.84 µM [falling, full curve].
For the compound `Cc1cc(C)c(/C=C(\C#N)C(N)=S)c(C)c1`, the cell number change is -52.8%. Besides, under setting [2], the AC50 is 29.1 µM [falling, single point]. Under setting [1], the half-maximal activity concentration (AC50) is 2.31 µM [falling, partial curve].
In the case of `Cc1cccc(-c2nnc(-c3ccccc3)o2)c1`, the cell number change is -9.79%. Moreover, the AC50 under setting [1] was 2.06 µM [rising, full curve].
Consider `Cc1ccc(NCC(=O)N/N=C/c2ccc(-c3cccc(C(F)(F)F)c3)o2)cc1`, for which the cell number change was -52.7%. Under setting [2], the AC50 is 20.6 µM [falling, single point]. Further, the AC50 under setting [1] was 16.4 µM [falling, single point].
With `CCC1CN(C(=O)N2CCC(C(=O)NCCc3ccc(OC)cc3OC)CC2)c2ccccc2O1` (centres undefined), the AC50 under setting [1] is 4.61 µM [falling, full curve].
Consider `CC1(C)Cc2c(sc3c2C(=O)N(c2ccccc2)C2=NCCCN23)CO1`, for which the cell number change was -16.4%. Moreover, the AC50 under setting [1] was 2.31 µM [falling, partial curve, poor fit].
For the compound `CC1=C(C)C(=O)C(CCCCC#CCCCC#CCO)=C(C)C1=O`, the cell number change was determined as 8.31%. Further, the AC50 under setting [1] was 4.11 µM [rising, partial curve].
As for `Cc1ccc(-c2c[n+](Cc3cccc(Cl)c3)c3n2CCC3)cc1`, the AC50 under setting [1] is 29.1 µM [falling, single point].
With `O=C1NC(=Nc2ccccc2)S/C1=C\c1ccccc1`, the cell number change was 26.6%. The AC50 under setting [1] was 23.1 µM [falling, single point].
With `Cc1cc(C(=O)NCC2CCCCC2)ccc1[N+](=O)[O-]`, the cell number change was 30%. Besides, under setting [1], the AC50 was 6.51 µM [falling, single point].
With `CCOCC(=O)Nc1nnc(COC)s1`, the cell number change was -77%. Besides, under setting [2], the AC50 is 1.64 µM [falling, partial curve]. Moreover, under setting [1], the concentration at half-maximal activity (AC50) was 29.1 µM [falling, single point].
For the compound `Cc1ccccc1NP(=O)(c1ccccc1)c1nc2ccccc2s1` (centres undefined), the cell number change turned out to be 29.4%. Besides, the AC50 under setting [1] was 14.6 µM [rising, partial curve, poor fit].
`CCc1ccc(CN(C)C(=O)C2=CC=CN3CCS(=O)(=O)N=C23)cc1`: the cell number change was -20.5%.
`CC(C)C(=O)Nc1c2c(nn1-c1ccccc1)CSC2`: the cell number change turned out to be 7.37%. The AC50 under setting [1] was 29.1 µM [rising, single point].
As to `COc1cccc(N2CCN(C(=O)c3ccc(CSc4nc5ccncc5[nH]4)cc3)CC2)c1`, the cell number change was -35.9%. Besides, the AC50 under setting [2] was 5.17 µM [falling, partial curve]. The AC50 under setting [1] is 4.11 µM [falling, full curve].
As for `CCC(=O)N(CCc1ccccc1)Cc1cc2cc3c(cc2[nH]c1=O)OCO3`, the cell number change is -28.7%. In addition, the AC50 under setting [1] is 2.06 µM [falling, partial curve, poor fit].
In the case of `OC1(C#CCN2CCCC2)CCCCC1`, the cell number change was -3.28%. The AC50 under setting [1] is 29.1 µM [rising, single point].
With `O=S(=O)(c1ccccc1)N1CCN(c2ncnc3sc(-c4ccccc4)cc23)CC1`, the cell number change is -9.94%.
For the compound `COc1ccc(NS(=O)(=O)c2ccc(O)c(C(=O)OCC(=O)N3CCCCC3)c2)cc1`, the cell number change is -14.9%. In addition, the AC50 under setting [1] is 0.00461 µM [rising, full curve, poor fit].
Turning to `COCCNC(=O)CN1C(=O)NC2(CCCCCC2)C1=O`, the AC50 under setting [2] was 4.11 µM [rising, single point].
With `COc1ccc2oc(=O)c(C(=O)O)cc2c1`, the cell number change is -9.92%. Further, the AC50 under setting [1] is 0.00461 µM [falling, full curve, poor fit].
Turning to `Cc1sc(NC(=O)Cn2c(=O)oc3ccccc32)nc1-c1ccc(Cl)cc1`, the cell number change was -11.1%. Moreover, the AC50 under setting [1] is 16.4 µM [falling, single point].
In the case of `NC(=O)CSc1nc2c(c(=O)n1-c1ccccc1)C1(CCCCC1)Cc1ccccc1-2`, the cell number change stood at 4.8%. The AC50 under setting [1] was 1.64 µM [rising, partial curve, poor fit].
`CCc1sc(C(=O)NCc2ccccc2)cc1C`: the AC50 under setting [2] is 0.00411 µM [rising, partial curve, poor fit].
With `CCOC(=O)N/N=C/c1ccc(N(CC)CC)cc1O`, the cell number change stood at 1.45%.
`COc1ccc(NC(=O)CN2C(=O)NC(C)(C3CC3)C2=O)cc1S(=O)(=O)N1CCOCC1` (centres undefined): the cell number change was 8.49%.
Still for that read-out and setting: the same measure for `CCOc1ccc(C(=O)NC(C(=O)NCCc2ccc(OC(F)F)cc2)C(C)C)cc1` (centres undefined): 8.33%.
As to `COc1c2ccoc2c(OC[C@@H](O)C(C)(C)OC)c2oc(=O)ccc12`, the cell number change is 22.3%. Also, the AC50 under setting [1] was 0.231 µM [rising, full curve, poor fit].
With `COc1ccc(N(CN2C(=O)c3ccccc3C2=O)C(=O)COc2ccc(Cl)cc2Cl)cc1`, the cell number change is 8.81%. In addition, under setting [1], the AC50 is 29.1 µM [rising, single point].
In the case of `O=C(C#Cc1ccccc1)NCc1ccccc1F`, the cell number change was -16.8%.
As to `O=C(c1ccco1)N(Cc1ccc(Cl)cc1)Cc1ccco1`, the cell number change was -5.6%. Besides, under setting [1], the AC50 was 29.1 µM [rising, single point].
For the compound `CCOc1ccc2oc(C(=O)NCC(c3ccco3)N(C)C)c(C)c2c1` (centres undefined), the cell number change is -25.6%. For the same compound, the half-maximal activity concentration (AC50) under setting [1] was 6.51 µM [falling, partial curve, poor fit].
As to `O=C(COC(=O)c1cn(-c2ccccc2)nc1-c1ccccc1)Nc1ncc(Cl)cc1Cl`, the cell number change came to 11.6%. Besides, the AC50 under setting [1] is 0.517 µM [rising, full curve, poor fit].
`Cc1c(NC(=O)c2ccccc2F)c(=O)n(-c2ccccc2)n1C`: the cell number change is -18.8%. Also, the AC50 under setting [1] was 6.51 µM [rising, single point].
In the case of `O=C(NC1=C(Nc2ccc(Cl)cc2)C(=O)c2ccccc2C1=O)c1ccccc1`, the cell number change is -92.5%. Moreover, under setting [2], the AC50 is 16.4 µM [falling, partial curve, poor fit]. In addition, the AC50 under setting [1] was 3.26 µM [falling, partial curve, poor fit].
Consider `Cc1ccc(-n2c(SCC(=O)N/N=C/c3ccccc3OCC(=O)O)nc3ccccc3c2=O)cc1`, for which the cell number change is -0.382%. Moreover, under setting [1], the AC50 is 29.1 µM [falling, single point].
As to `Cc1ccc(N(Cc2ccccc2)C(=O)c2ccc(C)c(S(=O)(=O)N3CCOCC3)c2)cc1`, the cell number change is -21.1%. Also, under setting [1], the AC50 is 0.0164 µM [falling, full curve].
Turning to `O=C(c1cnccn1)N1CCN(S(=O)(=O)c2ccc3ccccc3c2)CC1`, the concentration at half-maximal activity (AC50) is, setting by setting: under setting [2], 0.517 µM [rising, full curve]; under setting [1], 0.13 µM [rising, full curve, poor fit].
`O=C(NCc1ccc2c(c1)OCO2)C1Cc2ccccc2CN1C(=O)c1ccco1` (centres undefined): the cell number change is -17.3%. Further, the AC50 under setting [1] is 0.291 µM [falling, full curve, poor fit].
With `Cc1cc(C)n(-c2ccc(C(=O)OCC(=O)NCc3ccc(F)cc3)cc2)n1`, the cell number change was 14.7%. For the same compound, the half-maximal activity concentration (AC50) under setting [1] was 18.4 µM [rising, partial curve, poor fit].
Consider `COCCCNC(=O)c1cc(-c2cccnc2)nc2ccccc12`, for which the cell number change turned out to be 1.42%.
In the case of `CC12CCC(C(=O)N(CC(O)CN3CCN(Cc4ccccc4)CC3)C1=O)C2(C)C` (centres undefined), the cell number change is -15.7%. Under setting [1], the AC50 was 32.6 µM [falling, single point].
Consider `Cc1sc2nc(C(C)Sc3nnc(C)n3-c3ccccc3)[nH]c(=O)c2c1C` (centres undefined), for which the cell number change was -5.6%. Under setting [1], the AC50 is 0.231 µM [falling, full curve, poor fit].

For the origin of these results see PubChem BioAssay AID2685 (National Center for Advancing Translational Sciences (NCATS), 2010).
